We go through 1 molecule from US12018026B1, “Pyrido[4,3-e][1,2,3]triazolo[1,5-a]pyrimidine as CK2 inhibitors” (KING FAISAL UNIVERSITY, priority 2024, dated 2024).

Common to all, as to type: cell-based
Test [1] relates to HL60 (leukemia). In words: In vitro cytotoxic activity MTT assay, HL60. The settings on record: Homo sapiens, HL-60; cells exposed for 96 hours; read-out: Cytotoxicity activity IC50, HL60 (leukemia). How it is done:
(§1) Compounds 1-16 were screened for their in vitro cytotoxic activity utilizing a 3-(4,5-dimethyl-thiazol-2-yl)-2,5-diphenyltetrazolium bromide (MTT) assay against selected cancer human cell lines consisting of PC3 (prostate), HCT116 (colon), A375 (melanoma), H1299 (lung), MIAPaCa-2 (pancreas), HL60 (leukemia), MCF7 (breast), MDA-MB-231 (breast) (T. Mosmann, J. Immunol. Meth., 1983, 65, 55-63). The cells were cultured at 37° C. in RMPI1640 medium supplemented with 10% fetal bovine serum, 50 IU/mL penicillin, and 50 μg/mL streptomycin in a 5% CO2 incubator. All cells were sub-cultured 3 times/week by trypsinisation. Viable cells were seeded and allowed to adhere for 12 hours before a test drug was added in 96-well plates at an initial density of 1.0×10^5 cells/mL. Tumor cell lines were separately exposed to various concentrations of the tested compounds followed by incubation at a temperature of 37° C. during 96 hours inside a medium of fresh RMPI 1640. Cells were subsequently incubated at 37° C. using MTT at 0.5 mg/mL during 4 hours. After removal of supernatant, formazan crystals were dissolved in isopropanol and the optical density was measured at 570 nm. CX-4945 was used as a positive control.
A general note: Formazan colour is commonly taken as a measure of viable cells.

Test [2] deals with H1299 (lung). In words: In vitro cytotoxic activity MTT assay, H1299. The following applies: Homo sapiens, NCI-H1299; cells exposed for 96 hours; read-out: Cytotoxicity activity IC50, H1299 (lung). How it is done:
as §1

Test [3] concerns A375 (melanoma). In words: In vitro cytotoxic activity MTT assay, A375. The settings on record: Homo sapiens, A-375; cells exposed for 96 hours; read-out: Cytotoxicity activity IC50, A375 (melanoma). How it is done: as §1
The test system of test [4] is MIAPaCa-2 (pancreas). In words: In vitro cytotoxic activity MTT assay, MIAPaCa-2. The settings on record: Homo sapiens, MIA PaCa-2; cells exposed for 96 hours; read-out: Cytotoxicity activity IC50, MIAPaCa-2 (pancreas). The procedure:
as §1

For test [5], the system named is MDA-MB-231 (breast). In words: In vitro cytotoxic activity MTT assay, MDA-MB-231. The following applies: Homo sapiens, cells exposed for 96 hours, read-out: Cytotoxicity activity IC50, MDA-MB-231 (breast). How it is done: as §1
For test [6], the system named is MCF7 (breast). In words: In vitro cytotoxic activity MTT assay, MCF7. The settings on record: Homo sapiens, cells exposed for 96 hours, read-out: Cytotoxicity activity IC50, MCF7 (breast). How it is done:
as §1

Test [7] relates to HCT116 (colon). In words: In vitro cytotoxic activity MTT assay, HCT116. The settings on record: Homo sapiens, HCT-116; cells exposed for 96 hours; read-out: Cytotoxicity activity IC50, HCT116 (colon). The procedure:
as §1

Test [8] deals with PC3 (prostate). In words: In vitro cytotoxic activity MTT assay, PC3. The settings on record: Homo sapiens; cells exposed for 96 hours; read-out: Cytotoxicity activity IC50, PC3 (prostate). How it is done: as §1

A word on the IC50: it is the point on the concentration scale where inhibition reaches its midpoint. Take `O=C(O)c1ccc2c(c1)nc(Nc1cccc(Cl)c1)c1ccncc12` [CX-4945, reference compound]: the IC50 in test [1] turned out to be 3.7 µM; in test [2], 2300 nM; in test [3], 4.1 µM; in test [4], 1000 nM; in test [5], 6.2 µM; in test [6], 9.1 µM. For the same molecule, the 50% inhibitory concentration (IC50) in test [7] was determined as 2300 nM; in test [8], 2000 nM.
